Laboratory results reported in the supplement of paper PMC12873370.
Several values for one entry are separate records, joined by “and”; a condition that tells them apart may be missing. Equal entries are not always repeated. This is one part of the list. Most values come without repeats; read them as rough.

Test system: PREPP (mouse prostate epithelium Trp53/Pten KO)
Experiment: cell viability relative to untreated (fraction); higher = less growth inhibition
Details: 5 µM; 3 days

Structure (SMILES)	cell viability
O=C(CCc1ccc(O)cc1)c1c(O)cc(O)cc1O	0.849
CN(C)CC(=O)O	1.09
C[C@H](CCC(=O)NCC(=O)O)[C@H]1CC[C@H]2[C@@H]3[C@@H](O)C[C@@H]4C[C@H](O)CC[C@]4(C)[C@H]3CC[C@]12C	0.861
OC[C@H]1O[C@@H](n2cnc3c(O)nc(O)nc32)[C@H](O)[C@@H]1O	0.973
CCCCCCCCC[C@H](O)CC(=O)CCc1ccc(O)c(OC)c1	0.252
OC[C@@H]1OC(O)[C@@H](O)[C@H](O)[C@H]1O (stereo partly specified)	0.88
CCc1c2c(nc3ccc(OC(=O)N4CCC(N5CCCCC5)CC4)cc13)-c1cc3c(c(=O)n1C2)COC(=O)[C@]3(O)CC	0.711 and 0.829
CC(C)(CC(=O)O)CC(=O)O	1.08
C[C@@]1(F)[C@H](O)[C@@H](CO)O[C@H]1n1ccc(=O)[nH]c1=O	0.847
CCCCCCCCCCCC(=O)O	1.06
CC(=O)N[C@@H](CCC(N)=O)C(=O)O	0.908
CC1(C)CC(=O)CC(C)(C)N1	0.936
CC1CCC(C(C)C)C(O)C1 (stereo unspecified)	1.41
CCCCCCCC/C=C\CCCCCCCCCCCC(=O)O	1.01
CCCCCOc1ccc(-c2ccc(-c3ccc(C(=O)N[C@H]4C[C@@H](O)[C@@H](O)NC(=O)[C@@H]5[C@@H](O)[C@@H](C)CN5C(=O)[C@H]([C@@H](C)O)NC(=O)[C@H]([C@H](O)[C@@H](O)c5ccc(O)cc5)NC(=O)[C@@H]5C[C@@H](O)CN5C(=O)[C@H]([C@@H](C)O)NC4=O)cc3)cc2)cc1	0.775
C[N+](C)(C)CCOP(=O)(O)OP(=O)([O-])OC[C@H]1O[C@@H](n2ccc(N)nc2=O)[C@H](O)[C@@H]1O	0.951 and 1.03

Arranged by SMILES length (smallest number first): some entries from above
Structure (SMILES)	cell viability
CC(C)(CC(=O)O)CC(=O)O	1.08
CC1(C)CC(=O)CC(C)(C)N1	0.936
C[C@H](CCC(=O)NCC(=O)O)[C@H]1CC[C@H]2[C@@H]3[C@@H](O)C[C@@H]4C[C@H](O)CC[C@]4(C)[C@H]3CC[C@]12C	0.861
